Test results from the supplement of paper PMC10060354, “Discovery of a small molecule ligand of FRS2 that inhibits invasion and tumor growth” (Cellular Oncology, 2022).

Sequences of proteins named here, by UniProt entry; tags and fusion partners are left off. A change or cut given only in a name is not applied to a line headed by its entry.
UniProt Q9NS73: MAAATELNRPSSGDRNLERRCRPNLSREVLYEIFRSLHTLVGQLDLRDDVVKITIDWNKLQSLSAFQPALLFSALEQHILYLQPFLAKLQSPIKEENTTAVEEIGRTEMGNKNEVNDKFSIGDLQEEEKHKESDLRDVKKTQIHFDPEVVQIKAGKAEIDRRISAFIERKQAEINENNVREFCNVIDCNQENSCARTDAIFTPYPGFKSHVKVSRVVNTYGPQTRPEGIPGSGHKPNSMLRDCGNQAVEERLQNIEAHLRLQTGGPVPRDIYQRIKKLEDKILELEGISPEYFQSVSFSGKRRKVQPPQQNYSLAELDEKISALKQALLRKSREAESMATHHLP
UniProt O94973, whole entry: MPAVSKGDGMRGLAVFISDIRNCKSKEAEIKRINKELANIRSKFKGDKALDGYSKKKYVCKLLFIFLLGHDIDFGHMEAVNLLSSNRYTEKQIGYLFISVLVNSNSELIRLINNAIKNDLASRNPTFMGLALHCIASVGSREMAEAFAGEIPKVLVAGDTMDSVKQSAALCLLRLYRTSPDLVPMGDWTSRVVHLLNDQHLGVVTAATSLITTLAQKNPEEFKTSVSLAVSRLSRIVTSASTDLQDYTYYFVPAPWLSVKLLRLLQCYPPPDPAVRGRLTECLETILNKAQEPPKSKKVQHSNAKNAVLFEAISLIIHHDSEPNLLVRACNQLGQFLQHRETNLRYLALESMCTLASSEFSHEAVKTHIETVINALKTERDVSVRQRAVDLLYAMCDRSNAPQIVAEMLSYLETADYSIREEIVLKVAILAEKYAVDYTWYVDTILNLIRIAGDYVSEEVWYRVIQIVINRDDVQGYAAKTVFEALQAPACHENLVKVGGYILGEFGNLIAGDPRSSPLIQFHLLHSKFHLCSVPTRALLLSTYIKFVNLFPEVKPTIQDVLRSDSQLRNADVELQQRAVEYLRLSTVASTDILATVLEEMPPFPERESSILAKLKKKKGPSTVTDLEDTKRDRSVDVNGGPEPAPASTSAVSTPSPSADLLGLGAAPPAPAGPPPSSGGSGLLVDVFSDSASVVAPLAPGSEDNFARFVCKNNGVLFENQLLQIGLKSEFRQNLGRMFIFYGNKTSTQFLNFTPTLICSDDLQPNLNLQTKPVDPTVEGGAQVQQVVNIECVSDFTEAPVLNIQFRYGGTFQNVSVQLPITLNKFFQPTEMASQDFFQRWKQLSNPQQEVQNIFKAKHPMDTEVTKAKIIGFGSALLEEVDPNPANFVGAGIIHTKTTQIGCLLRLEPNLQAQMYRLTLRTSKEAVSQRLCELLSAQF
UniProt Q9Y2X0: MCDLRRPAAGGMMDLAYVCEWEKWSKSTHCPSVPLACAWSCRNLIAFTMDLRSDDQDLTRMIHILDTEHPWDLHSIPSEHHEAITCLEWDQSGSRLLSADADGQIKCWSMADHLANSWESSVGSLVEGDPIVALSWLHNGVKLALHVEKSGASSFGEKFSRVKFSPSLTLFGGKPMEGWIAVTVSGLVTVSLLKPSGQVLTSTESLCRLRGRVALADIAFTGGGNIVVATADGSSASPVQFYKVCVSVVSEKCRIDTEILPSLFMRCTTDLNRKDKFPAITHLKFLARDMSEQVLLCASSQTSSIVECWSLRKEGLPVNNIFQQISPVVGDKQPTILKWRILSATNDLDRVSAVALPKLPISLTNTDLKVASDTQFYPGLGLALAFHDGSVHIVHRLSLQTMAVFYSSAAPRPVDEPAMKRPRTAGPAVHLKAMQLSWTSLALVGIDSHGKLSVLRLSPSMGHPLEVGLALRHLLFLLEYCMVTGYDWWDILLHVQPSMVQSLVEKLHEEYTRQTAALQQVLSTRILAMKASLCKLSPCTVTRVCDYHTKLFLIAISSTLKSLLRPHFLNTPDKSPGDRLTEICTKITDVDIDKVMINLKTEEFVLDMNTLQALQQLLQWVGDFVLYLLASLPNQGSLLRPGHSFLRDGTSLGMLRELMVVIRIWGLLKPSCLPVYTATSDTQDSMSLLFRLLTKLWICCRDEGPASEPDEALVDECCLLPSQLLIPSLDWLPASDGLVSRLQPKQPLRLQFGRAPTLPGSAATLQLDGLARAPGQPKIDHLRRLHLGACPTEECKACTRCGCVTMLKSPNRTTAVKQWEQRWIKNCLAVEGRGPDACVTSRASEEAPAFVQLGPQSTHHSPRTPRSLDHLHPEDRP
UniProt P60468, whole entry: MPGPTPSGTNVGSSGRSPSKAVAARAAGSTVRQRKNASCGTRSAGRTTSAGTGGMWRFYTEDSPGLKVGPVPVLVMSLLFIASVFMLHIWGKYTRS
UniProt Q7L266: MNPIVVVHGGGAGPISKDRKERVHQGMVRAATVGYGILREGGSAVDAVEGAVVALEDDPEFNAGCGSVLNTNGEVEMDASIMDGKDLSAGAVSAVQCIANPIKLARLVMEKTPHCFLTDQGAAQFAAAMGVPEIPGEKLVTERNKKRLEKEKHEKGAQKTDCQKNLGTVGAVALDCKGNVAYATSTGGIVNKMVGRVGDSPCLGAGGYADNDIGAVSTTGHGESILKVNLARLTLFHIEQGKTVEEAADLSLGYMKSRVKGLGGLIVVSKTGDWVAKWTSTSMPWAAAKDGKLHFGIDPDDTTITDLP
UniProt Q14157: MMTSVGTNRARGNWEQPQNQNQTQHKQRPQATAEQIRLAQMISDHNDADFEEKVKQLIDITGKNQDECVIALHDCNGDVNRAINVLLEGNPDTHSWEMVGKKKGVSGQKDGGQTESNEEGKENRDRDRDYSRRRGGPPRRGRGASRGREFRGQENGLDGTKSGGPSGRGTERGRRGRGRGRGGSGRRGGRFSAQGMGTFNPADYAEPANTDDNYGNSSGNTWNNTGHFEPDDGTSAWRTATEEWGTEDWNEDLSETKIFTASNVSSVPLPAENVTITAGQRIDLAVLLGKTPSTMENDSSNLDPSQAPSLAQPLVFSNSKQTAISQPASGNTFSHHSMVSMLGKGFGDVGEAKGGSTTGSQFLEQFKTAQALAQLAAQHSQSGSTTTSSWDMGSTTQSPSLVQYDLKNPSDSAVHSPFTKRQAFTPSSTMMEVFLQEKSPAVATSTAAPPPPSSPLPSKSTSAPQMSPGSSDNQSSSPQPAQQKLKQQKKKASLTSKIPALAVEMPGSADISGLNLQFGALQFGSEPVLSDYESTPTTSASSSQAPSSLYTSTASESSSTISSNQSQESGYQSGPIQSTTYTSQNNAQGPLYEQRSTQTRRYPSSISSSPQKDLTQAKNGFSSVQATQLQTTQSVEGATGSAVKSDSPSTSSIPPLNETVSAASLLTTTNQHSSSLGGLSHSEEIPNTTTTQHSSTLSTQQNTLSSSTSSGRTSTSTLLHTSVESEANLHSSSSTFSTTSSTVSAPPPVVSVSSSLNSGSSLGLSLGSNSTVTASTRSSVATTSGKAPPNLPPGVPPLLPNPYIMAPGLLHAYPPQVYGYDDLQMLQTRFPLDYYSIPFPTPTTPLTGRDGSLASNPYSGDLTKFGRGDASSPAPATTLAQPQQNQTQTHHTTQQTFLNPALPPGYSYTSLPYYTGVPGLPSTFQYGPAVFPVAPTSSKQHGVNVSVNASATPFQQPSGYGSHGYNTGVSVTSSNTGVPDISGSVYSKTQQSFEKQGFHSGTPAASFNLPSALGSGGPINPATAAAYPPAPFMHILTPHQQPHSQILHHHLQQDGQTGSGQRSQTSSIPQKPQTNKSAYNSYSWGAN
UniProt P19022: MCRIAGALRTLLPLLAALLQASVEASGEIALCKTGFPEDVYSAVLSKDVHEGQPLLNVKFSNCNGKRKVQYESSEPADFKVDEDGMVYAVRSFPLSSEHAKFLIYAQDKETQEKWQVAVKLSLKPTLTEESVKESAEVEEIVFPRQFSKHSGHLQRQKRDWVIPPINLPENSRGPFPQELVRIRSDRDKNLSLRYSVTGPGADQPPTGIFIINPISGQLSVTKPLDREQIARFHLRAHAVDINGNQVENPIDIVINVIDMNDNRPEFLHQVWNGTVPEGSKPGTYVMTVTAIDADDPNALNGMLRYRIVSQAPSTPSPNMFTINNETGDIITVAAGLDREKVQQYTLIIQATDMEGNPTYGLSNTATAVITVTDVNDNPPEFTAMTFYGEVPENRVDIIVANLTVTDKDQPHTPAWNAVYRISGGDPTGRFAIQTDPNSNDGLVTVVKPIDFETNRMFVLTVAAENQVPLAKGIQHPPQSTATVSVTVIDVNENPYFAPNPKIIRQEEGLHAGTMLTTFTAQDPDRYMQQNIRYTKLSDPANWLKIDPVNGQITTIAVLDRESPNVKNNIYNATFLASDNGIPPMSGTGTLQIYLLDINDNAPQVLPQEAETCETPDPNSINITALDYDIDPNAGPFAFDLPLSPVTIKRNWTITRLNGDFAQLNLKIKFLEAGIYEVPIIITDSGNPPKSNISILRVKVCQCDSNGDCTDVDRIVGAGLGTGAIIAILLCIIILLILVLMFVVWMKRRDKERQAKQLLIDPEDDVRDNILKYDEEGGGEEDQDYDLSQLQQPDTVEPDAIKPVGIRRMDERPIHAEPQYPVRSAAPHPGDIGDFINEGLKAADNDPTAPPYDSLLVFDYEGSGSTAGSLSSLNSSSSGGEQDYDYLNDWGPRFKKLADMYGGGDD
UniProt P02689: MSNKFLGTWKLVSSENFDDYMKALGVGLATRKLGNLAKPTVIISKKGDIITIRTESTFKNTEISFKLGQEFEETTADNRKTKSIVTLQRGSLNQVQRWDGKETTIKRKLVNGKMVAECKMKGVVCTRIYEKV
UniProt Q9Y263: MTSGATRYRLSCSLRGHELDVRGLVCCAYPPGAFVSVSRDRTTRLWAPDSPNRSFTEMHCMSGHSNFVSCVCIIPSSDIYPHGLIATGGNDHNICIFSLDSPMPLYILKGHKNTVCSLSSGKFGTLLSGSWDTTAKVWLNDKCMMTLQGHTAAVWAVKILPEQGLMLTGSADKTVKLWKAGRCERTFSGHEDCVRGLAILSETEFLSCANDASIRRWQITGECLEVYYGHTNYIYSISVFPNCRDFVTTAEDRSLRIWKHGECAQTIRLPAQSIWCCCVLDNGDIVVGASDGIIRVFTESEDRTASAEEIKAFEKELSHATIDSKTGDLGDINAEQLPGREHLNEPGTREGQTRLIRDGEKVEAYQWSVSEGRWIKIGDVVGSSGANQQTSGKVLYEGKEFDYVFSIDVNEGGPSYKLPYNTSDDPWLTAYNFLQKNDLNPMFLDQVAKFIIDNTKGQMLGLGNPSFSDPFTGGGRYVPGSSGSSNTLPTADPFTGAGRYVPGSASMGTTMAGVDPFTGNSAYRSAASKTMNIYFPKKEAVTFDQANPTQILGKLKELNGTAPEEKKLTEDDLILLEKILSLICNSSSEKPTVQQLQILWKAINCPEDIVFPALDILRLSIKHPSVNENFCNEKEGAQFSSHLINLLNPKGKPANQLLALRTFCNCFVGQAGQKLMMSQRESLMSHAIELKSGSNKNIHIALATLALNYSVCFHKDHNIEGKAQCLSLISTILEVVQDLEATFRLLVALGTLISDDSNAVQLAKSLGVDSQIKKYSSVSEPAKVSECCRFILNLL
UniProt A6NGH7: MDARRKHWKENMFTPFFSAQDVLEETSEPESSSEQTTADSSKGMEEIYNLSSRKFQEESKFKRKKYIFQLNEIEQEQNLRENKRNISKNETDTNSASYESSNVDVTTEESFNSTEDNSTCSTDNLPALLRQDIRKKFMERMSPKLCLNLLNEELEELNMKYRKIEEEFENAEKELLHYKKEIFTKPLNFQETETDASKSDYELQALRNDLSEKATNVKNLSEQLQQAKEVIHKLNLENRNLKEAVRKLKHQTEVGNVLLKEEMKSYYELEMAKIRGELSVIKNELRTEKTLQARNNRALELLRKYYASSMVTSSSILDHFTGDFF
UniProt Q96HE7: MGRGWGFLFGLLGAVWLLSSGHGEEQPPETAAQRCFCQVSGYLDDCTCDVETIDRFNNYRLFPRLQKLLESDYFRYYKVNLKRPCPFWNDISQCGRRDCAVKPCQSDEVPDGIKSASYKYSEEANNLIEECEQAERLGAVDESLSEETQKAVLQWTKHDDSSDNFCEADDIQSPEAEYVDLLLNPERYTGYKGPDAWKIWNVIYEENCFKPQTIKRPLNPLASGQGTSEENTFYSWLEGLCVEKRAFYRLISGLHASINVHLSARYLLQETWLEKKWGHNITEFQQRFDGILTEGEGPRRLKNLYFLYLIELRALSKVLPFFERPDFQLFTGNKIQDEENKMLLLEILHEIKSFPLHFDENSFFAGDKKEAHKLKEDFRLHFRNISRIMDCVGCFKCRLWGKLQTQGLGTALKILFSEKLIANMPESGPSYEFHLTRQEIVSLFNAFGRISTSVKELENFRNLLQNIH
UniProt P27216: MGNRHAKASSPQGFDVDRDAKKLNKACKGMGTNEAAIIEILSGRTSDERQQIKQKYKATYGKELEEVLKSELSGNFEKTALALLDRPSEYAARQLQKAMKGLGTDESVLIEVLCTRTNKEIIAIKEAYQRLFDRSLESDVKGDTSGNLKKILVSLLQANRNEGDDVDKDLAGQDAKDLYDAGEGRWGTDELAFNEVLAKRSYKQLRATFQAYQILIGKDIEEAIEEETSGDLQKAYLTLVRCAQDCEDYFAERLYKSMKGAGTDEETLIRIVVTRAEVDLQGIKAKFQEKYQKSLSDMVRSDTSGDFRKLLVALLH

Compound: [O-][N+](C(C1=C(C(O)=C2)NC(C(C=C3)=CC=C3Cl)C4C1C=CC4)=C2Cl)=O
Assay: melting temperature shift (compound 7 minus DMSO); higher = compound stabilises the protein
Settings: 10 µM
Protocol: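 Thermal proteome profiling (TMT mass spectrometry) in intact DAOY medulloblastoma cells or DAOY lysates treated with 10 µM compound 7 or DMSO, heated at 10 temperatures from 40.5 to 73.8 °C for 3 min. Melting curves were fitted with the Bioconductor TPP package, and the melting point difference between compound and vehicle is reported per protein (single curve per condition).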

[1] = system: DAOY cell lysate, treatment time: 20 min, 4 °C
[2] = system: intact DAOY cells, treatment time: 90 min, 37 °C

Target | melting temperature shift [1] [°C] | melting temperature shift [2] [°C]
RPL12 (UniProt P30050) | -0.308 | 1.49
MOB2 (UniProt Q70IA6) | 0.164 | -0.0117
UBL7 (UniProt Q96S82) | -0.604 | -0.566
CBX4 (UniProt O00257) | -0.429 | –
UniProt Q5JNZ5 | – | -0.698
NDRG3 (UniProt Q9UGV2) | -0.311 | 0.0708
UniProt Q58FG0 | – | -0.296
PRKCDBP (UniProt Q969G5) | 0.372 | 2.38
SMTN (UniProt P53814) | -0.443 | -0.868
TFAP4 (UniProt Q01664) | 0.114 | 0.0708
UniProt Q9BXT8 | 1.1 | –
NIF3L1 (UniProt Q9GZT8) | -0.0392 | 3.38
UniProt Q9Y587 | 0.334 | –
HSD17B10 (UniProt Q99714) | 0.646 | 3.61
UniProt Q9BQP9 | – | -1.83
UniProt Q9NS73 | 0.441 | –
NACC1 (UniProt Q96RE7) | -0.763 | -1.27
LAMC1 (UniProt P11047) | 1.15 | 0.545
GPT2 (UniProt Q8TD30) | – | 0.915
PRKCSH (UniProt P14314) | 2.24 | –
HSDL1 (UniProt Q3SXM5) | 1.04 | 0.852
RRAGC (UniProt Q9HB90) | -0.573 | 3.78
AP2A2 (UniProt O94973) | -0.301 | 0.164

Target | melting temperature shift [1] [°C] | melting temperature shift [2] [°C]
MED16 (UniProt Q9Y2X0) | -1.05 | -1
SMC2 (UniProt O95347) | -0.25 | -0.652
MASTL (UniProt Q96GX5) | 0.09 | –
SEC61B (UniProt P60468) | 2.74 | –
MON1B (UniProt Q7L1V2) | 7.43 | 0.767
COPS5 (UniProt Q92905) | -0.749 | -0.165
PDZD11 (UniProt Q5EBL8) | -0.144 | 0.0407
TMEM41A (UniProt Q96HV5) | -0.0395 | –
UniProt P78527 | -0.413 | -1.53
UniProt O43916 | 0.488 | –
CCT2 (UniProt P78371) | -0.343 | -0.441
JMY (UniProt Q8N9B5) | -2.03 | –
UniProt Q7L266 | -1.09 | 1.42
UniProt O00255 | 1.21 | –
UniProt P68371 | -0.413 | -0.772
COL4A3BP (UniProt Q9Y5P4) | -0.237 | 0.0188
NOL11 (UniProt Q9H8H0) | 0.372 | 0.0968
GDI2 (UniProt P50395) | -0.48 | 0.375
ELAC2 (UniProt Q9BQ52) | 0.374 | -0.353
CCDC59 (UniProt Q9P031) | 0.0571 | –
ATP2B1 (UniProt P20020) | 0.813 | -0.788
RPL21 (UniProt P46778) | 0.324 | -0.741
FAM111B (UniProt Q6SJ93) | -1.38 | -1.9

Target | melting temperature shift [1] [°C] | melting temperature shift [2] [°C]
UBAP2L (UniProt Q14157) | -0.837 | –
ARID2 (UniProt Q68CP9) | -1.13 | –
PRDX6 (UniProt P30041) | -0.349 | -0.195
BDH2 (UniProt Q9BUT1) | – | 1.39
UniProt P19022 | 0.786 | –
SUZ12 (UniProt Q15022) | -0.36 | 0.136
IPO5 (UniProt O00410) | -0.573 | -0.25
UniProt Q9NVR2 | 1.62 | 1.79
UniProt O43462 | – | -2.45
DUT (UniProt P33316) | 0.4 | -2.48
ETFB (UniProt P38117) | 0.48 | 0.0614
EWSR1 (UniProt Q01844) | -1.17 | –
UBL4A (UniProt P11441) | 0.475 | -0.706
UniProt Q13367 | – | -1.48
PTRF (UniProt Q6NZI2) | 1.6 | 1.23
UniProt Q6XE24 | – | -0.0866
UniProt Q9HAA7 | 1.19 | -1.87
PGAM1 (UniProt P18669) | – | -1.6
UniProt P35080 | -0.866 | 0.0668
MCU (UniProt Q8NE86) | 2.06 | -0.877
PIP5K1A (UniProt Q99755) | 0.701 | -2.83
PRRC1 (UniProt Q96M27) | -3.01 | 3.86
SET (UniProt Q01105) | -2.1 | 1.84

Target | melting temperature shift [1] [°C] | melting temperature shift [2] [°C]
ASS1 (UniProt P00966) | – | -0.639
SLC9A3R2 (UniProt Q15599) | 3.99 | –
ACOT7 (UniProt O00154) | -0.103 | 0.369
ORC3 (UniProt Q9UBD5) | -1.09 | -1.89
RBMS2 (UniProt Q15434) | 0.552 | -0.0191
RBM39 (UniProt Q14498) | -0.193 | -0.755
LRRFIP2 (UniProt Q9Y608) | -1.89 | –
MFF (UniProt Q9GZY8) | 1.05 | 0.253
UniProt P02689 | – | -0.195
HDHD2 (UniProt Q9H0R4) | -0.602 | 1.28
HNRNPM (UniProt P52272) | 0.531 | -0.326
PRDX4 (UniProt Q13162) | -0.311 | –
TUBB6 (UniProt Q9BUF5) | -0.979 | -1.47
GSTO1 (UniProt P78417) | -0.519 | 1.96
TBCB (UniProt Q99426) | -0.392 | 0.734
PLAA (UniProt Q9Y263) | -0.37 | -0.431
UniProt Q9P2L0 | 0.817 | –
FAM120C (UniProt Q9NX05) | 0.408 | -0.916
UniProt A6NGH7 | – | -2.34
UniProt Q9BXN6 | – | 2.37
VIMP (UniProt Q9BQE4) | 3.05 | –
TAB1 (UniProt Q15750) | -0.563 | 0.459
EIF2S2 (UniProt P20042) | -0.0131 | -0.637

Target | melting temperature shift [1] [°C] | melting temperature shift [2] [°C]
IRF3 (UniProt Q14653) | -0.253 | -0.00612
ZNF668 (UniProt Q96K58) | 3.6 | –
RAP1B (UniProt P61224) | 2.1 | -0.956
ERO1A (UniProt Q96HE7) | 0.313 | 0.337
SNUPN (UniProt O95149) | 1.92 | 0.322
UniProt Q2VIQ3 | – | 0.765
BET1 (UniProt O15155) | 0.0991 | –
PPIA (UniProt P62937) | -0.235 | 0.113
MANBAL (UniProt Q9NQG1) | -0.312 | –
PIR (UniProt O00625) | -0.393 | 0.748
CTPS2 (UniProt Q9NRF8) | -1.02 | -0.504
PARG (UniProt Q86W56) | -1.76 | 1.98
UniProt Q9UH62 | 1.41 | 0.963
MLKL (UniProt Q8NB16) | -1.22 | -0.998
HSPA4L (UniProt O95757) | -0.318 | -0.628
ZC3H18 (UniProt Q86VM9) | 0.75 | -0.0398
HNRNPD (UniProt Q14103) | 0.831 | 0.0586
UniProt P27216 | – | -0.0232
VPS39 (UniProt Q96JC1) | – | 0.75
GLUD1 (UniProt P00367) | -0.0845 | -1.04
JMJD6 (UniProt Q6NYC1) | -0.0191 | -1.36
POLR3B (UniProt Q9NW08) | 0.148 | –
SUCLA2 (UniProt Q9P2R7) | 0.812 | -2.67

Single values are uncertain, as repeats are few or missing.
